In article PMC6947505:
No constants are given. Whether binding was seen depends on the method and setting. Binding seen in cells or lysates may run through a third protein. Some results given as binding are weak or reduced against the parent protein; the word gives no strength. For some of these results: Where a sequence is shown, tags or fusion partners need not be part of it.

How the values were obtained:
[1] = biological target: T1, Flag-p100 (3KR, K332/338/341R) (UniProt Q00653); assay: co-IP; extracts of HEK293T cells transfected with tagged constructs; in some panels treated with EBSS and Baf
T1 sequence: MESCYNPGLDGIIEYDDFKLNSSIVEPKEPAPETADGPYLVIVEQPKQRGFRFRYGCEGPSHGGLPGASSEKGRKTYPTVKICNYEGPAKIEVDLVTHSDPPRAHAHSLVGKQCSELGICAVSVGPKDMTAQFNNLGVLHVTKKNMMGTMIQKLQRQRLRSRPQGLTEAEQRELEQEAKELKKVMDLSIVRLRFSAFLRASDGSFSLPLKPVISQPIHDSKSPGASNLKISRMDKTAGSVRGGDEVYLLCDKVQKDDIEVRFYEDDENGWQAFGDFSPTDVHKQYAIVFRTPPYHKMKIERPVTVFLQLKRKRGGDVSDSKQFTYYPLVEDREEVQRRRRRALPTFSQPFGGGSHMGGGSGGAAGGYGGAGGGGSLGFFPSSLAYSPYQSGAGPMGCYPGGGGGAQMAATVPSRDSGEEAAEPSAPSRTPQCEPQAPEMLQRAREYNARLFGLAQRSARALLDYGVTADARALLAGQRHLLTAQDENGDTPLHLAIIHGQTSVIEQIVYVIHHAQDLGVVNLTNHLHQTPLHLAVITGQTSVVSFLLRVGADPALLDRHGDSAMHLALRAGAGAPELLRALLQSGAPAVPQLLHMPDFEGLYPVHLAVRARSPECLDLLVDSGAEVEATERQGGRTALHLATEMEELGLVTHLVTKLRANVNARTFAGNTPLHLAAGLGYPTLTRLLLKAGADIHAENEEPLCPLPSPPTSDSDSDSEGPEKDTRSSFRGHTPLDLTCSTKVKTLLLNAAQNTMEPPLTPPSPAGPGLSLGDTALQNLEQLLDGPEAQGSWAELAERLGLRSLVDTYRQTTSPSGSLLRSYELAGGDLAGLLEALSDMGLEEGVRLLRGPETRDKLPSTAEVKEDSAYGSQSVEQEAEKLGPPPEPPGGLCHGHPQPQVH

[2] = biological target: T2, Flag-p52 (1–415 aa) (UniProt Q00653); assay: as above
T2 sequence: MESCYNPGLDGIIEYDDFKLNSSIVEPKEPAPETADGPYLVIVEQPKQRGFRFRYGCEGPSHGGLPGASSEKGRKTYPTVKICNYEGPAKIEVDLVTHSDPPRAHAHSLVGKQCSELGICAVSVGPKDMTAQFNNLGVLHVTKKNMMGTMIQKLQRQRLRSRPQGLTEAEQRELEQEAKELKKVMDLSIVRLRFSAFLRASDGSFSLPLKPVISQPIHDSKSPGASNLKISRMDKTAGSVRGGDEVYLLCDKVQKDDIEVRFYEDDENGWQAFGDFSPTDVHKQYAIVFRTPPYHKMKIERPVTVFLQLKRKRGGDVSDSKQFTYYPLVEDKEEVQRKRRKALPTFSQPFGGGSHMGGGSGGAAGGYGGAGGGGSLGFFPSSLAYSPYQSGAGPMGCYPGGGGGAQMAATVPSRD

[3] = biological target: T3, Flag-p100 (FL) (UniProt Q00653); assay: as above
T3 sequence: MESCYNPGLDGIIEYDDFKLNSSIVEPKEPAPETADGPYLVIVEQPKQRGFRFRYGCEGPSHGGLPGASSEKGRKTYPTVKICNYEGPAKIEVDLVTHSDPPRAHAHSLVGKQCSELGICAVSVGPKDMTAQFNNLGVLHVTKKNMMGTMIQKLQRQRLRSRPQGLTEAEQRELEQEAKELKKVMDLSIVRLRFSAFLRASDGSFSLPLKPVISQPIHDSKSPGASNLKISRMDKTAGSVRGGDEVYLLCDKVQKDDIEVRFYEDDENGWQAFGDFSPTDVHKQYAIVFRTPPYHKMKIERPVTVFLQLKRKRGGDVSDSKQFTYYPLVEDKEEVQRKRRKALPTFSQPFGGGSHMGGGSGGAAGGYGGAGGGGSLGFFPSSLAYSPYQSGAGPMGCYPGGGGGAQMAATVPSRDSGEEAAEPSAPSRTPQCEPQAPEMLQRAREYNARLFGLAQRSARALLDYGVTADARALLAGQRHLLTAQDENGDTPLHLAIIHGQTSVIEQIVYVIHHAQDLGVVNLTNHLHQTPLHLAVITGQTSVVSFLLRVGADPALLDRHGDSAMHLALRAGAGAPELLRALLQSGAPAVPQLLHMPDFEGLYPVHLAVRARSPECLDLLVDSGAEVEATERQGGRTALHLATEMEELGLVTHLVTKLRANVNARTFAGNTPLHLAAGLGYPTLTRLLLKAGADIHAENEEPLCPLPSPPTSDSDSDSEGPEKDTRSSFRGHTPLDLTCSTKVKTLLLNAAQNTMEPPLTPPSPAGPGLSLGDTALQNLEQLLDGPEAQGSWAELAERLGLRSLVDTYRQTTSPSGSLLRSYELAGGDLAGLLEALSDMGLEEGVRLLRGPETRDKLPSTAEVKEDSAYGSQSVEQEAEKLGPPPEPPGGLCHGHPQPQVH

[4] = biological target: T4, p100 (endogenous, mouse BMDMs) (mouse (endogenous in BMDMs)) (UniProt Q9WTK5); assay: co-IP; endogenous proteins; extracts of HeLa, THP-1, BMDMs or PBMCs treated with different stimuli (TNFα, EBSS); WT BMDMs compared with Trim14−/− BMDMs
T4 sequence: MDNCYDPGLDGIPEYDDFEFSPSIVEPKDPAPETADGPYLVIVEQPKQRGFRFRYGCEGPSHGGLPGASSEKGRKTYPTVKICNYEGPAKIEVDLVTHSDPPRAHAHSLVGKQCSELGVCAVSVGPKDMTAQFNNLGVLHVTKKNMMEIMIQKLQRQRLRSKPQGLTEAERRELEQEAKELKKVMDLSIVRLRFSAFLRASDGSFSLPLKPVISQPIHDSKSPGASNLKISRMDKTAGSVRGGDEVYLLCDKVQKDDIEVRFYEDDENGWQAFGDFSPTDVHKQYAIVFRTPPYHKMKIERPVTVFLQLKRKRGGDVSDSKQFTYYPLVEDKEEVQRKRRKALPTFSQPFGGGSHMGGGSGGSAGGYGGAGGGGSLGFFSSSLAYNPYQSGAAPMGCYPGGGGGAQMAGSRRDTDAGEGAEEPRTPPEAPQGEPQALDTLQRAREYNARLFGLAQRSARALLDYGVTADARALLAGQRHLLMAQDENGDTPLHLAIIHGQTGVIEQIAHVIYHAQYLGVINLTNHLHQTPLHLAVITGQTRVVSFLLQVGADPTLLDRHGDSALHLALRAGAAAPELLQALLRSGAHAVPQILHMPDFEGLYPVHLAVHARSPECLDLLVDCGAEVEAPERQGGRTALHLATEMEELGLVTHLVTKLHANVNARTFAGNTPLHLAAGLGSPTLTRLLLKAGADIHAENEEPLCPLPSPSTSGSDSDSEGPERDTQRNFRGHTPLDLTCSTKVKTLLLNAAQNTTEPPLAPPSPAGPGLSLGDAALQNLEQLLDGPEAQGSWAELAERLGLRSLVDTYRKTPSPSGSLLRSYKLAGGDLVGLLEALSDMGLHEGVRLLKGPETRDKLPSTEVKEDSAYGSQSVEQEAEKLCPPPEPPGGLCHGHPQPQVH

HA-p62 (from UniProt Q13501 1-440)
binding [1]: no binding

B1: HA-TRIM14 (protein, UniProt Q14142 1-442)
chain: MAGAATGSRTPGRSELVEGCGWRCPEHGDRVAELFCRRCRRCVCALCPVLGAHRGHPVGLALEAAVHVQKLSQECLKQLAIKKQQHIDNITQIEDATEKLKANAESSKTWLKGKFTELRLLLDEEEALAKKFIDKNTQLTLQVYREQADSCREQLDIMNDLSNRVWSISQEPDPVQRLQAYTATEQEMQQQMSLGELCHPVPLSFEPVKSFFKGLVEAVESTLQTPLDIRLKESINCQLSDPSSTKPGTLLKTSPSPERSLLLKYARTPTLDPDTMHARLRLSADRLTVRCGLLGSLGPVPVLRFDALWQVLARDCFATGRHYWEVDVQEAGAGWWVGAAYASLRRRGASAAARLGCNRQSWCLKRYDLEYWAFHDGQRSRLRPRDDLDRLGVFLDYEAGVLAFYDVTGGMSHLHTFRATFQEPLYPALRLWEGAISIPRLP
binding [2]: binds | binding [3]: binds

B2: TRIM14 (endogenous, mouse BMDMs) (protein, UniProt Q8BVW3 1-440)
chain: MASETTEARAPFQPDGAYGWRCPEHSERPAELFCRRCGRCVCALCPVLGAHRGHPVGLAEEEAVRVQKLIQDCLECLATKKRQHADNIAHLEDAGERLKVYADSSKAWLTQKFTELRLLLDEEEVLAKKFIDKSTQLTLQVYREQAETCGKQIEVMDDFSTRVWGIGQEPNPVQLLQAYIATKTEMGQQMSPSELSHPVPLSFEPVKNFFKEFVEAIGNTLQTPMDTRLKENINCQLSNSSSTKPGALLKTSPSPERALFLKYARTPTLDPDTMHARLRLSPDGLTVRCSLLGRLGPRPAPRFDALRQVLGRDGFAAGRHYWEVDVQEAGVGWWVGAAYPSLRRRGASAAARLGCNRESWCVKRYDLEYWAFHDGQRSRLRPRRDPHRLGVFLDYEAGILAFYDVAGGMSHLHTFHAAFQEPLYPALRLWEGPISIPRLP
binding [4]: binds
